Results are given as percent effect. The controls that fix the scale are not given in the record; negative values are as filed. This is an unselected part of the compounds tested. Two or more numbers in one place are separate tests of the same structure; such repeats can differ widely.

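Viability assay of Plasmodium falciparum sporozoites; the read-out is not stated. The concentration is filed as 10 mM, unlikely as a test dose, so the dose is not known. Higher reads as lower viability (inferred: compounds with an IC50 in retests scored well above the rest). Strong results were mostly tested again. About 34,000 compounds were tested under these conditions; 0.84% (about 280) showed 50% or more at least once.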

SMILES: CCc1nc(CN2CCCN(c3ncnc4ccccc34)CC2)no1
percent effect: 7.197

SMILES: CC[C@@H]1C[C@H](C(F)(F)F)n2nc(C3CCN(S(=O)(=O)CC)CC3)cc2N1
percent effect: 15.34

SMILES: CC(C)c1noc(CCC(=O)N(CC2CCOC2)C2CC2)n1 (stereo unspecified)
percent effect: 14.76

SMILES: Cc1nccc(CN2CC[C@@]3(CCCN3Cc3ccccc3)[C@@H](O)C2)n1
percent effect: 0.8368

SMILES: N#Cc1ccc(F)c(CN2CCCCC2Cn2cccn2)c1 (stereo unspecified)
percent effect: 13.73

SMILES: [H][C@@]12COC[C@]1(COc1nccc(C)n1)CN(C(=O)c1ncccn1)C2
percent effect: 24.47

SMILES: O=C(CCNC(=O)c1ccoc1)Nc1cccc(F)c1
percent effect: -6.466

SMILES: O=C(Nc1ccc(CCN2CCOCC2)cc1)C1CC1
percent effect: -7.596

SMILES: Fc1ccc(CCN2CCC(c3nnc(-c4cccnc4)o3)CC2)cc1
percent effect: -13.39

SMILES: CO[C@@H]1CN(c2ccccc2)S(=O)(=O)[C@@]12CCN(Cc1ccccc1)C2
percent effect: -38.96

SMILES: Cc1nc(C2CCCN(C(=O)Cn3ccccc3=O)C2)sc1C (stereo unspecified)
percent effect: 3.425

SMILES: CC(C)c1nc(CN2CCCC2c2cnn(C)c2)cs1 (stereo unspecified)
percent effect: 2.99

SMILES: O=C(c1ccc2nncn2c1)N1CCCC(n2ccnc2)C1 (stereo unspecified)
percent effect: 3.123

SMILES: Cc1cc2c(cc1C)OC1(C=C2)CCN(CC(=O)N2CCOCC2)CC1
percent effect: 10.27

SMILES: CC(C)(C)c1nnc(CN2CCOC(Cn3cccn3)C2)o1 (stereo unspecified)
percent effect: 7.977

SMILES: COc1ccnc(N2CCN(C(=O)Cc3ccsc3)CC2)n1
percent effect: 6.429

SMILES: Cn1cc(-c2nc(CN3CCc4c(ncn4C4CC4)C3)cs2)cn1
percent effect: -103.8 & 17.24 & 4.267

SMILES: CCOCc1ncn2c1CN(C(=O)c1ccoc1)CC2
percent effect: -3.212

SMILES: CC(=O)N1CCC2(CC1)c1ncc(-c3ccc(F)cc3)n1CCN2C
percent effect: -0.4052

SMILES: O=C(O)C(F)(F)F.[H][C@]12C[C@@H](C(=O)NCCc3cccs3)CO[C@@]1([H])CCN(C1CCC1)C2
percent effect: -2.35

SMILES: CN(CC1CC1)c1ccc2ccc(C(=O)NCCN3CCOCC3)cn12
percent effect: 1.875

SMILES: Cc1nc(N2CCN(C(=O)c3ccc(O)cc3)CC2)c2cnn(C)c2n1
percent effect: -4.8

SMILES: COc1c(C2CCCN2C(=O)c2ccc3cc[nH]c3c2)c(C)nn1C (stereo unspecified)
percent effect: -12.02

SMILES: O=C(NCCc1ccccc1Cl)NCC1(O)CCSC1 (stereo unspecified)
percent effect: -9.236

SMILES: COCCN1CC=C(c2cccc(OC)c2)CC1
percent effect: -17.43

SMILES: CCC(=O)N1CCCC(c2nc(N(C)C)ncc2-c2ccc(F)cc2)C1 (stereo unspecified)
percent effect: 2.091

SMILES: Cc1ccccc1C1(CNC(=O)CCN2C(=O)CCC2=O)CC1
percent effect: 1.676

SMILES: [H][C@@]12COC[C@]1([H])[C@@H](OCc1cccnc1)CN2C(=O)CNC(C)=O
percent effect: -20.52

SMILES: Cn1nnc2cc(C(=O)N3CCCC3Cc3ccccc3)ccc21 (stereo unspecified)
percent effect: -3.424

SMILES: Cc1cccc(C(=O)NCc2ccc(CS(N)(=O)=O)cc2)n1
percent effect: 3.709

SMILES: COc1ccc(CC(=O)N2CCc3nnc(N(C)C)cc3C2)cc1F
percent effect: -0.4831

SMILES: CC(C)N1CCC(C(=O)N[C@H](C(=O)O)c2cccc(F)c2F)CC1
percent effect: 2.536

SMILES: Cc1nc(CN(C)C2CCN(Cc3ccc4ccccc4n3)C2)no1 (stereo unspecified)
percent effect: 22.4

SMILES: CCc1nnc(CN(CC)C(=O)C2CC(=O)N(C(C)(C)C)C2)o1 (stereo unspecified)
percent effect: -19.54

SMILES: O=C(Nc1cccs1)N(CCO)CCOCC(F)(F)F
percent effect: -7.086

SMILES: Cc1ccc2[nH]c(CNC(=O)C3CC4(CCNCC4)CN3C)nc2c1C (stereo unspecified)
percent effect: 3.223

SMILES: CCn1cc(NC(=O)C2CCN(CCOC(C)C)CC2)cn1
percent effect: 0.8965

SMILES: CN(C)[C@H]1CCCCN(C(=O)c2cccc(N3CCS(=O)(=O)CC3)c2)C1
percent effect: -5.077

SMILES: O=C(O)C(F)(F)F.O=C(O)C(F)(F)F.[H][C@@]12CN(CC3CC3)CCC[C@]1(C(=O)N(C)C)CN(c1ccccn1)C2
percent effect: -4.722

SMILES: Cc1cc(C)n(CC2CCCN2CCc2ccncc2)n1 (stereo unspecified)
percent effect: 14.17

SMILES: CN(CC(=O)N1CCCC1Cn1cccn1)c1cnccn1 (stereo unspecified)
percent effect: -0.5757

SMILES: Cc1ccc(C(CNCc2ncc[nH]2)N2CCOCC2)s1 (stereo unspecified)
percent effect: -17.44 & -15.29 & -4.501

SMILES: CCn1nc2c(cc1=O)CN(Cc1nc(-c3ccco3)no1)CC2
percent effect: 3.591

SMILES: CNC(=O)COc1ccc(CNCc2c(C)nn(C)c2N(C)C)cc1
percent effect: 4.535

For reference, 4 entries once more:

SMILES,percent effect
CCOCc1ncn2c1CN(C(=O)c1ccoc1)CC2,-3.212
CCn1cc(NC(=O)C2CCN(CCOC(C)C)CC2)cn1,0.8965
O=C(NCCc1ccccc1Cl)NCC1(O)CCSC1 (stereo unspecified),-9.236
O=C(c1ccc2nncn2c1)N1CCCC(n2ccnc2)C1 (stereo unspecified),3.123

Source: ChEMBL document CHEMBL3988442, “University of Dundee, Small-Polar-MMV Screening Library” (2021).